These are yes or no findings as the source states them, for the method shown. Binding seen in cells or lysates may run through a third protein. Some results given as binding are weak or reduced against the parent protein; the word gives no strength. Values belong to the molecule of their own block, whether it stands above or below them.
Legend:
[1] = molecular target: DEAD box helicase 41 (DDX41) (human (endogenous in K562)) (UniProt Q9UJV9); assay: co-IP; immunoprecipitation with control IgG or indicated antibodies, Western blotting (Fig. 5b-e); cells not given
[2] = molecular target: DDX41-R525H (human (endogenous in K562)) (UniProt Q9UJV9); assay: co-IP; DDX41 WT, KO and KI (R525H, Y259C) K562 cells; immunoprecipitation with rabbit IgG or indicated antibodies, Western blotting (Fig. 5f-k, Supplementary Fig. S8)
[3] = molecular target: T1, DDX41-Y259C (human (endogenous in K562)) (UniProt Q9UJV9); assay: as above
T1 sequence: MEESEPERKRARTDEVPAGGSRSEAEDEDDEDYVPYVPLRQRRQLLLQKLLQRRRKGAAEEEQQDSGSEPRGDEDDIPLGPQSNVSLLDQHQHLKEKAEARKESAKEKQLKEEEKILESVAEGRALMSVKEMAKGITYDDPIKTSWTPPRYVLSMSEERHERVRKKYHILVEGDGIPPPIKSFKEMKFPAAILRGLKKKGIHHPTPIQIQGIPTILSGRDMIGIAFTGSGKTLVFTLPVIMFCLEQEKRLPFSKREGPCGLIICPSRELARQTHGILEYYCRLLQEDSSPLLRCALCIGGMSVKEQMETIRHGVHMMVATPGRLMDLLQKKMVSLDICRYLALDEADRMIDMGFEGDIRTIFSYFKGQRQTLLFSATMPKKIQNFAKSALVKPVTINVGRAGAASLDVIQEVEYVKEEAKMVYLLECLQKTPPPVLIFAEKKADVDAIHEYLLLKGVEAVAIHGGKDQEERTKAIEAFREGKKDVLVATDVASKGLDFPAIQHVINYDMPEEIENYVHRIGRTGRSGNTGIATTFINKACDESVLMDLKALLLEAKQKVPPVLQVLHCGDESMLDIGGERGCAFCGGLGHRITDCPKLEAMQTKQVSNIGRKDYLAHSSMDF

Protein sequences, listed by entry. Tags and fused reporters are not part of them.
UniProt Q86U44: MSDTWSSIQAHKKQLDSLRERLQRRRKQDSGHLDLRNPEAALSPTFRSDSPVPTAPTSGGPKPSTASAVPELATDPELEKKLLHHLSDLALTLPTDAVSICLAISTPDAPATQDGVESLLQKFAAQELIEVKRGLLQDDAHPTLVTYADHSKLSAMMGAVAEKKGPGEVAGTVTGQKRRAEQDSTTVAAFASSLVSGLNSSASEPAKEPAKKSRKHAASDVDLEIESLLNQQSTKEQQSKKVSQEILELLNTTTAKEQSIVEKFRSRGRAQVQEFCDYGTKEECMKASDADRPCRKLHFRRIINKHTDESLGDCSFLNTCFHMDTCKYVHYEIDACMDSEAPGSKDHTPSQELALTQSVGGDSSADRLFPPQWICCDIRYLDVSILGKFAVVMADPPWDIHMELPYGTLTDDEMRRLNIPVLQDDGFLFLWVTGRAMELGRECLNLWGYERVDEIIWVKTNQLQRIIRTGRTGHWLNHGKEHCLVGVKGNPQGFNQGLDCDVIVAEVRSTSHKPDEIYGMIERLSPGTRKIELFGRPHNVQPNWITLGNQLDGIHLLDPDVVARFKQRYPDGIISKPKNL

[4] = molecular target: DEAD box helicase 41 (DDX41) (human (endogenous in K562)) (UniProt Q9UJV9); assay: as above

binding [1]: binds
binding [2]: binds
binding [3]: binds
binding [4]: binds
Molecule: METTL3 (from UniProt Q86U44 1-580)

binding [1]: binds
B1: METTL14 (protein, UniProt Q9HCE5 1-456)
chain: MDSRLQEIRERQKLRRQLLAQQLGAESADSIGAVLNSKDEQREIAETRETCRASYDTSAPNAKRKYLDEGETDEDKMEEYKDELEMQQDEENLPYEEEIYKDSSTFLKGTQSLNPHNDYCQHFVDTGHRPQNFIRDVGLADRFEEYPKLRELIRLKDELIAKSNTPPMYLQADIEAFDIRELTPKFDVILLEPPLEEYYRETGITANEKCWTWDDIMKLEIDEIAAPRSFIFLWCGSGEGLDLGRVCLRKWGYRRCEDICWIKTNKNNPGKTKTLDPKAVFQRTKEHCLMGIKGTVKRSTDGDFIHANVDIDLIITEEPEIGNIEKPVEIFHIIEHFCLGRRRLHLFGRDSTIRPGWLTVGPTLTNSNYNAETYASYFSAPNSYLTGCTEEIERLRPKSPPPKSKSDRGGGAPRGGGRGGTSAGRGRERNRSNFRGERGGFRGGRGGAHRGGFPPR
